Results are given in words; binding and its absence hold for the method and conditions named. Binding seen in cells or lysates may run through a third protein. Some results given as binding are weak or reduced against the parent protein; the word gives no strength.
Biological target: Flag-VP35 (Zaire ebolavirus) (UniProt Q05127)
Test: co-IP

Amino acid sequences for entries named in this document (tags omitted).
UniProt Q05127: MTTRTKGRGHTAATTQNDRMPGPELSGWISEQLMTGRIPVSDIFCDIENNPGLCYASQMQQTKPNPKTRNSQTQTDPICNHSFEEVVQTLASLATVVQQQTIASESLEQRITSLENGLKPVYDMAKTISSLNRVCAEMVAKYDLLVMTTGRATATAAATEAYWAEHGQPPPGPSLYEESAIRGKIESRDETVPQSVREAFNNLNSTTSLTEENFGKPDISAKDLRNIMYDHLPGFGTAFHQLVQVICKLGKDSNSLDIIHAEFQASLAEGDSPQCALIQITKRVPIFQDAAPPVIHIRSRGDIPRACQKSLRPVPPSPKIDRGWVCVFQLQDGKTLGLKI
UniProt Q05128: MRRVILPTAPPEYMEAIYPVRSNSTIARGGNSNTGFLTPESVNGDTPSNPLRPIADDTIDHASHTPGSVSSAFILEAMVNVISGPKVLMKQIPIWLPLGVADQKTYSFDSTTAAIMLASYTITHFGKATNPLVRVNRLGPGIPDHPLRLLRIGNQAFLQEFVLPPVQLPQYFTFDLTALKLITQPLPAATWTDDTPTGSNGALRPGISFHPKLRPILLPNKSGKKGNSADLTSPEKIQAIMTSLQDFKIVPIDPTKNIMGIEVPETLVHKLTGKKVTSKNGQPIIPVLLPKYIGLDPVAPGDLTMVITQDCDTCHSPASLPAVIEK

Myc-VP40 (from UniProt Q05128 1-326) was tested, and the binding was “binds”.
